These are yes or no findings as the source states them, for the method shown. A result given as binding can be weak or reduced; the word gives no strength.

For the test, the target named is sarco-endoplasmic reticulum Ca2+-ATPase (SERCA). Put plainly: cryo-EM structure.

B1: phospholamban Asn27-Ala mutant (canine PLN sequence), super-inhibitory pentameric form (protein, UniProt P61012 1-52)
chain: MDKVQYLTRSAIRRASTIEMPQQARQALQNLFINFCLILICLLLICIIVMLL
With B1, the binding entry is “binds”.

Source of the values: paper doi:10.1101/370387 (bioRxiv, 2018).
